Laboratory results published in paper PMC5799184, “Gs- versus Golf-dependent functional selectivity mediated by the dopamine D1 receptor” (Nature Communications, 2018).
These are yes or no findings as the source states them, for the method shown. Binding seen in cells or lysates may run through a third protein. Some results given as binding are weak or reduced against the parent protein; the word gives no strength.

By UniProt entry, the sequences of proteins in these tests, tags left out. Where a name states a change or a piece, a line headed by the entry shows the natural chain unless it says otherwise.
UniProt P21728: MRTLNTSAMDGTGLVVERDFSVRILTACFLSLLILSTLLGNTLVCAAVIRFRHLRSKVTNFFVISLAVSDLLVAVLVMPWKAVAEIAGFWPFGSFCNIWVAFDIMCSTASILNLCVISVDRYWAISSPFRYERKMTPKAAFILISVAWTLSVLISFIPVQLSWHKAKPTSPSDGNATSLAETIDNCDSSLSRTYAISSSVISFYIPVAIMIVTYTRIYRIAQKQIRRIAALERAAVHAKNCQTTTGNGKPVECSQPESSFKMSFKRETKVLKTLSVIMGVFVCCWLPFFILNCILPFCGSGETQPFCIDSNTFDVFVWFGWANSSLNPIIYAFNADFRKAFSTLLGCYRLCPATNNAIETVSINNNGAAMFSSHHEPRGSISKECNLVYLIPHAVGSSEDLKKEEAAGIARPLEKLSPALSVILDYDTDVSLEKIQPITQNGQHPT
UniProt O95622: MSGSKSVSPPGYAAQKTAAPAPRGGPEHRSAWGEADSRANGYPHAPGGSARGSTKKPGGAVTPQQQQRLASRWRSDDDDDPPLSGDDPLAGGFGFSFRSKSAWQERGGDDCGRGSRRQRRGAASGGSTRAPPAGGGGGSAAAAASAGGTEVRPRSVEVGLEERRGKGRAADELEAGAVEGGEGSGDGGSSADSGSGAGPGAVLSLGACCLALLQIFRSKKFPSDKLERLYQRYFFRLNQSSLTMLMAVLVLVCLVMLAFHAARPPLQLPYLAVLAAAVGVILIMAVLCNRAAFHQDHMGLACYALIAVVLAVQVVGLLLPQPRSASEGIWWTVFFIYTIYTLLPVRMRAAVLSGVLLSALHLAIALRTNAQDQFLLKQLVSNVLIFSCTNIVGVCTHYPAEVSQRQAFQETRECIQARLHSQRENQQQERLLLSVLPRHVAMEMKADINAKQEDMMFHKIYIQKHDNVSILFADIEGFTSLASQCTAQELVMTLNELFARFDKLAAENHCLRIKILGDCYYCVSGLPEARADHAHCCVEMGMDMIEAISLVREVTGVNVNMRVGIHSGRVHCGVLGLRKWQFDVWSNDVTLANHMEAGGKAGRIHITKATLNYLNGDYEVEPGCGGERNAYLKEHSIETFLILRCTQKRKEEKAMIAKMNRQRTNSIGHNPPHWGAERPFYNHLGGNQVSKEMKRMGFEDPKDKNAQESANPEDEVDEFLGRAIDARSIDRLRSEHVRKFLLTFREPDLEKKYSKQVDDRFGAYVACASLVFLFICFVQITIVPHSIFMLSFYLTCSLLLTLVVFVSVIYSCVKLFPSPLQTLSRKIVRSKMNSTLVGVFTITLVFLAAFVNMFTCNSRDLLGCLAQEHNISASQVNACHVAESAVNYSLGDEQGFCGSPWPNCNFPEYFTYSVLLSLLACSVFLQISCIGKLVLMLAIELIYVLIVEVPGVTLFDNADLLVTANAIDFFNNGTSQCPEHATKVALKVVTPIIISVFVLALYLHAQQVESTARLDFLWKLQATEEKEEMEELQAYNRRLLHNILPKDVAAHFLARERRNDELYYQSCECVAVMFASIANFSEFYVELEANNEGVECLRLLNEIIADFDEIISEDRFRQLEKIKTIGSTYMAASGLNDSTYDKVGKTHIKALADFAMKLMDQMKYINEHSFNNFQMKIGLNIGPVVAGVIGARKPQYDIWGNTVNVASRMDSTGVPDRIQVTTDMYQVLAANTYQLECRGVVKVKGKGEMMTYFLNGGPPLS
UniProt P11229: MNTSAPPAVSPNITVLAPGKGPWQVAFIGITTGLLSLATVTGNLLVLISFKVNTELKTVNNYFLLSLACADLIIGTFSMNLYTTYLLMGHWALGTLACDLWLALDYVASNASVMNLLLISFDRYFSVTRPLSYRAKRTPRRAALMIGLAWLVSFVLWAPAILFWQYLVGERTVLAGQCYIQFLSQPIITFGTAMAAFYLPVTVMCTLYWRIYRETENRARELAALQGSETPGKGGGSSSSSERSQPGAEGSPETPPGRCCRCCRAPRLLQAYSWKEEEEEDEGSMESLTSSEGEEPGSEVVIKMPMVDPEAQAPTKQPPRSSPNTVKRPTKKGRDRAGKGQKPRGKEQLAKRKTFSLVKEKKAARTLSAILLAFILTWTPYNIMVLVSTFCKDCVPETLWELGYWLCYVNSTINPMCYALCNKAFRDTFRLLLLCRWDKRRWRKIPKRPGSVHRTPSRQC
UniProt P38405: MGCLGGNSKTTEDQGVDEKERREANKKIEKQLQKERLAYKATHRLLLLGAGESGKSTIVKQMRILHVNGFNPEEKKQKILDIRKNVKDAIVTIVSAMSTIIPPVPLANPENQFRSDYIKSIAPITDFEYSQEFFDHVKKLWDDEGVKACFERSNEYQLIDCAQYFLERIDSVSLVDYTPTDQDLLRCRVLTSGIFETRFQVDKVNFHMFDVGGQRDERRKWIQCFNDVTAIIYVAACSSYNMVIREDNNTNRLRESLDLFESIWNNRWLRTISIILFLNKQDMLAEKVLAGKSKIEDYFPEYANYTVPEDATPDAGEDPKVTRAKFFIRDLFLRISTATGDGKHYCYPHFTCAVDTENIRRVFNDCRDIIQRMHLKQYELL
UniProt P63096: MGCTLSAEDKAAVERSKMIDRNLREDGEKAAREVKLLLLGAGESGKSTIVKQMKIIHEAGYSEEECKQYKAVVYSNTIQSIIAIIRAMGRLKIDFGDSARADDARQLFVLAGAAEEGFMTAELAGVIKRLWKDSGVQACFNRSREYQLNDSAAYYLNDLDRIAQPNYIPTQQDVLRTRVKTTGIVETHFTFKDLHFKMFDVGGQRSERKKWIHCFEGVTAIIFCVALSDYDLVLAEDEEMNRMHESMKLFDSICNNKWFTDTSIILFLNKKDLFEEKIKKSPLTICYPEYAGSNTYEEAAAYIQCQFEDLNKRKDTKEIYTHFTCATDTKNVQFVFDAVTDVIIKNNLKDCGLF
UniProt P50148: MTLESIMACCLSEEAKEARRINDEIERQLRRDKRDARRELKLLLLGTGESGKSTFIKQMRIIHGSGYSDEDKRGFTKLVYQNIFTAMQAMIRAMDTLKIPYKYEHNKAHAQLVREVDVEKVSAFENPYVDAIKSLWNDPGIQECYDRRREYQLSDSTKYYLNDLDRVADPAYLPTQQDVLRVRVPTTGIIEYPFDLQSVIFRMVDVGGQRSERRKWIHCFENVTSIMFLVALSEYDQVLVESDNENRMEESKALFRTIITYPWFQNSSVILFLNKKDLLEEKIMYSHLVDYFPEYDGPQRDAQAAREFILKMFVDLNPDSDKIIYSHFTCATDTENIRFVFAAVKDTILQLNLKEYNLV
UniProt P32121: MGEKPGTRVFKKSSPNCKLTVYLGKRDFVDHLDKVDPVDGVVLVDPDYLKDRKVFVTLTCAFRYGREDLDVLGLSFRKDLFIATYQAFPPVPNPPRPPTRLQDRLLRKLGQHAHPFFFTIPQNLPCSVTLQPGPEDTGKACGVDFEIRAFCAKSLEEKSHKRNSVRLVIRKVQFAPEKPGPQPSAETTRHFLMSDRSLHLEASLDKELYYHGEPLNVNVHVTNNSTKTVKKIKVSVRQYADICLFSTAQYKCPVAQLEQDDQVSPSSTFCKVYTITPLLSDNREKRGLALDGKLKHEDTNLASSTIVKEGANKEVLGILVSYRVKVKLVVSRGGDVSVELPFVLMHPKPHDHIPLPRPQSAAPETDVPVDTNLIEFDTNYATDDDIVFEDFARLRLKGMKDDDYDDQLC

Legend:
[1] = target: dopamine D1 receptor fused to Renilla Luciferase 8 (human) (UniProt P21728); assay: FRET or BRET; receptor-Gα engagement BRET1 in intact transfected HEK-293T cells in PBS; receptor-Rluc donor, Gα-Venus acceptor; 5 µM coelenterazine H, agonists (DA, NE, SKF38393, SKF81297, SKF82958, NPA, DHX, A77636; carbachol for M1R) added one minute later; BRET change = ratio with drug minus ratio without …
[2] = target: Adenylate cyclase 5 fused to NanoLuc (UniProt O95622); assay: FRET or BRET; Gα-AC5 interaction BRET in intact transfected HEK-293T cells; AC5-Nluc donor, Gαss-Venus or Gαolf-Venus acceptor; D1R co-expressed and D1R agonists (DA, NE, SKF38393, SKF81297, DHX) added
[3] = target: muscarinic M1 receptor (human) (UniProt P11229); assay: FRET or BRET; receptor-Gα engagement BRET1 in intact transfected HEK-293T cells in PBS; receptor-Rluc donor, Gα-Venus acceptor; 5 µM coelenterazine H, agonists (DA, NE, SKF38393, SKF81297, SKF82958, NPA, DHX, A77636; carbachol for M1R) added one minute later; BRET change = ratio with drug minus ratio without …
[4] = target: dopamine D1 receptor fused to Renilla Luciferase 8 (human) (UniProt P21728); assay: FRET or BRET; β-arrestin-2 recruitment BRET in intact transfected HEK-293T cells; D1R-Rluc donor, β-arrestin-2-Venus acceptor; GRK2 co-transfected; D1R agonists added

“Golf/s_33–38 chimera fused to Venus (from UniProt P38405 1-381)” was tested. Which binding [1] did it give?
Its binding is “binds”.

“Gαi1 fused to Venus (from UniProt P63096 1-354)” was tested. Which binding [1] did it give?
Its binding is “no binding”.

Which results are given for “Gαolf fused to Venus (from UniProt P38405 1-381)”?
binding [2]: binds; binding [1]: binds

“Gαq fused to Venus (from UniProt P50148 1-359)” was tested. Which binding [3] did it give?
Its binding is “binds”.

What about the binding [1] of the same substance?
The binding was “no binding”.

How did the binding [4] turn out when “mVenus-fused β-arrestin-2 (from UniProt P32121 1-409)” was run?
The binding was “binds”.
